# Primary screen of a compound library

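Whole-cell assay for inhibitors of Mycobacterium tuberculosis growth, labelled Cornell in the record; the read-out is not stated. The concentration is filed as 10 mM, unlikely as a test dose, so the dose is not known. Higher means stronger inhibition (inferred from two other growth screens of the library). Size under these conditions: about 53,000 compounds, about 900 of them at 50% or above in at least one test.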

Each number is a percent effect as filed.
How 0% and 100% were set is not recorded. Most values in the screen are low, and negative values occur.
The compounds are a random part of those screened.

- CNCC(=O)N1CCCC1c1cncc(Oc2ccc(F)cc2)n1.Cl (configuration not stated) : 20.13%
- Cc1ccc2c(c1)N(C(=O)c1c[nH]c(C)cc1=O)CC(C)O2 (configuration not stated) : -33.96%
- O[C@@H]1CN(CC2CC2)CC[C@H]1N1CCN(c2ccccc2F)CC1 : 17.26%
- CCN(CC)S(=O)(=O)N1C[C@@H](O)[C@H](Oc2cccc(F)c2)C1 : 14.02%
- Cc1c[nH]nc1C1CCCN(C(=O)Cn2cccn2)C1 (configuration not stated) : 6.944%
- CCc1noc(CN2CCN(C(=O)c3ccccc3F)CC2)n1 : -42.96%
- CCC[C@@H]1CN(C(=O)c2conc2-c2ccccc2)C[C@H]1N(C)C : 13.79%
- COCCN1CC(O)CN(C(=O)c2ccc(SC)cc2)CC1=O (configuration not stated) : -4.22%
- O=C(NCc1nncn1C1CC1)c1cccnc1Oc1ccccc1 : -8.728%
- Cl.c1ccc(CNc2cc(C3CCCNC3)ccn2)nc1 (configuration not stated) : -42.81%
- CC(=O)c1c(F)cccc1N1CCC(Cc2cccnc2)CC1 : 43.25%
- Cc1cc(C)n(CC2CCCCN2CC(=O)Nc2nncs2)n1 (configuration not stated) : 16.26%
- COCCCN1CCC(NC(=O)C2CC2)CC1 : -13.87%
- Cc1ccsc1-c1cc(C(=O)O)cc(S(=O)(=O)NCc2ccccn2)c1 : 26.44%
- [H][C@]12CCN(Cc3cc(Cn4cncn4)c(C)cc3C)C[C@]([H])(CC1)N2 : -10.75%
- CCN(CC(=O)N(C)C)C(=O)c1nc(C)n(-c2ccccc2Cl)n1 : 6.568%
- Cc1ccc(C(=O)NCCNCC2CNc3ccnn3C2)cc1 (configuration not stated) : 23.23%
- N#Cc1cccnc1N1CCCN(C(=O)CCn2cncn2)CC1 : -32.25%
- COc1cccc(C)c1C(=O)N1CCc2ncnc(NCCO)c2CC1 : -5.762%
- Cc1[nH]ccc1C(=O)N1CCCC(c2ccc(C(=O)O)cc2)C1 (configuration not stated) : 44.79%
- COCC(=O)NC[C@@]1(COc2cnccn2)C[C@@H](O)[C@@H](O)C1.Cl : 13.92%
- Cc1nc(C(C)(C)NCc2ncc(C(C)C)o2)sc1C : 24.36%
- CC(C)c1ccc(OCCC(=O)N(C)C)cc1 : -8.314%
- COc1ccc(C(C)NCc2nnc(C)s2)cc1F (configuration not stated) : 17.76%
- COC(=O)c1oc(CNC(C)(C)CO)cc1C : -20.88%
- COCCN1CCCC(c2ccnc3c(C(N)=O)cnn23)C1 (configuration not stated) : 4.949%
- COc1ccccc1C(=O)N1CC(=O)N(CC2CC2)CC(O)C1 (configuration not stated) : 1.196%
- CC(C)N(Cc1ccc(C#N)cc1)Cc1nnsc1Cl : 3.863%
- O=C(NC1CC1)c1ccn(COc2c(Cl)cccc2Cl)n1 : 30.07%
- CCn1cc(NS(=O)(=O)c2ccc(Br)s2)c(C(N)=O)n1 : 6.355%
- N#CCCN(CCC#N)C(=O)CN(C1CC1)C1CCc2ccccc21 (configuration not stated) : -2.709%
- CC1CCN(CC2CCCN(C(=O)Nc3ccccn3)C2)CC1 (configuration not stated) : 20.2%
- Cc1ccc(S(=O)(=O)c2ncccc2CN2CCOCC2)cc1 : 20.61%
- c1ccc(NCc2cccc(OCCN3CCOCC3)c2)nc1 : 18.23%
- O=C(C1CCC1)N1CCc2onc(Cn3cccn3)c2C1 : -21.42%
- Cc1ncn(CCNC(=O)Nc2ccc(F)c(Cl)c2)c(=O)c1C : -3.401%

Once more, the final 4:

For Cc1ccc(S(=O)(=O)c2ncccc2CN2CCOCC2)cc1 the result was 20.61%.
For c1ccc(NCc2cccc(OCCN3CCOCC3)c2)nc1 the result was 18.23%.
For O=C(C1CCC1)N1CCc2onc(Cn3cccn3)c2C1 the result was -21.42%.
For Cc1ncn(CCNC(=O)Nc2ccc(F)c(Cl)c2)c(=O)c1C the result was -3.401%.

From ChEMBL document CHEMBL3988442, “University of Dundee, Small-Polar-MMV Screening Library” (2021).